# From PubChem BioAssay AID2685 (National Center for Advancing Translational Sciences (NCATS), 2010)
# This is one part of the list. Further columns of the screen follow, without active or inactive calls. Most of these compounds were active or inconclusive in the main read-out, so they are no random draw. Potencies come from curve fits of mixed quality, noted in brackets.
# Assay: qHTS Assay for Lipid Storage Modulators in Drosophila S3 Cells;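 for cell number change: cells counted by Cell Tracker Red CMTPX staining in the red channel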
# Conditions: BODIPY lipid droplet fluorescence, 18-24 h; for cell number change: measured here: cell count max response, cells fed with added oleic acid
# How it was run: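 Drosophila S3 cells got compounds at several concentrations plus oleic acid (400 uM solution). Laser-scanning cytometry with 488 nm excitation read lipid droplets at 500-530 nm and cells at 575-640 nm. Percent activity was relative to 20 uM Triacsin C.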
# [1] = measured here: lipid fluorescence (Fed channel) AC50, cells fed with added oleic acid
# [2] = measured here: cell number channel AC50, cells fed with added oleic acid
SMILES,cell number change [%],AC50 [1],AC50 [2]
CCOC(=O)c1c(-c2cccc([N+](=O)[O-])c2)csc1NC(=O)CCCOc1ccccc1OC,-18.7,"23.1 nM [falling, full curve, poor fit]",
COC(=O)CCC/C=C1\SC[C@@H](NC(=O)c2ccccc2)C1NC(C)=O (some centres not stated),14.6,"14600 nM [rising, single point]",
Oc1c(Cl)cc(Cl)cc1C=Nc1ccc(N2CCOCC2)cc1,-30.7,,
Cc1cc(C)cc(NC(=S)N2CCN(C(=O)c3ccco3)CC2)c1,-24.8,,
O=C(Cn1cnc(S(=O)(=O)N2CCCC2)c1)Nc1cccc(F)c1,10,"29100 nM [falling, single point]",
Cc1cc(C)c(C#N)c(SCC2COc3ccccc3O2)n1 (configuration not stated),-16.2,"2060 nM [rising, partial curve]",
c1ccc(CCNc2nnnn2-c2ccccc2)cc1,-21.8,,
COc1ccc(NC(=O)CN(C)C(=O)c2ccc(-c3ccccc3Cl)o2)cc1,,"366 nM [rising, full curve, poor fit]",
Cc1cc2nc(SCC(=O)Nc3ccccc3C(=O)O)[nH]c2cc1C,0.83,,
CSc1ncccc1C(=O)OCC(=O)NCCC1=CCCCC1,,,"6510 nM [falling, single point]"
COc1cccc(C(C(=O)NCC2CCCO2)N(C(=O)Cn2nnc3ccccc32)c2ccc(NC(C)=O)cc2)c1OC (configuration not stated),6.31,,
Cc1c(C(=O)Nc2ccc3oc(-c4cccnc4)nc3c2)oc2ccccc12,-27.7,"29100 nM [falling, single point]",
O=C(Nc1ccc(N2CCN(C(=O)c3ccccc3)CC2)cc1)c1cccnc1,10.9,"29100 nM [falling, single point]",
CN(C)c1oc(/C=C/c2ccccc2)nc1C#N,2.4,"103 nM [rising, full curve, poor fit]",
Cn1c(CN2CCOCC2)nc2cc(NC(=O)c3ccc(Cl)cc3)ccc21,-13.9,,
O=C(Nc1ncccc1Cl)c1ccc2c(c1)OCCO2,-23.2,"651 nM [falling, single point]",
CCn1ncc(/C=N\NC(=O)c2cc(-c3ccc(C)cc3C)nc3ccccc23)c1C,28.2,"731 nM [rising, single point]","2060 nM [rising, full curve, poor fit]"
COc1ccc(S(=O)(=O)N2CCN(CC(=O)Nc3cc(Cl)ccc3Cl)CC2)cc1,20.4,"11.6 nM [rising, full curve]",
CCCCCCN(C(=O)CCCCCN1C(=O)NC(c2ccc(-c3ccccc3)cc2)C(C(=O)OCc2ccccc2)=C1C)C(C(=O)NCCCC)c1ccc(OCC(=O)OC)cc1 (configuration not stated),-0.852,"8200 nM [rising, partial curve]","5800 nM [falling, single point]"

# Some of the entries above in another layout.
SMILES | cell number change [%] | AC50 [1] | AC50 [2]
COc1ccc(NC(=O)CN(C)C(=O)c2ccc(-c3ccccc3Cl)o2)cc1 |  | 366 nM [rising, full curve, poor fit] | 
Cc1cc2nc(SCC(=O)Nc3ccccc3C(=O)O)[nH]c2cc1C | 0.83 |  | 
